Primary screen of a compound library

Mtb growth Cornell: 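Whole-cell assay for inhibitors of Mycobacterium tuberculosis growth, labelled Cornell in the record; the read-out is not stated. The concentration is filed as 10 mM, unlikely as a test dose, so the dose is not known. Higher means stronger inhibition (inferred from two other growth screens of the library). About 53,000 compounds were tested under these conditions; 1.7% (about 900) showed 50% or more at least once.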
Mtb heat-shock: 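Assay on Mycobacterium tuberculosis, filed only as a heat shock assay from Cornell; the read-out is not stated. The concentration is filed as 10 mM, unlikely as a test dose, so the dose is not known. Higher reads as stronger inhibition (inferred: compounds with an IC50 in retests scored well above the rest). Size under these conditions: about 69,000 compounds, about 930 of them at 50% or above in at least one test.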

Values are the deposited “Percent Effect”, in %.
The record does not define 0% and 100%; most values in the screen are far below 50% and negative numbers occur (in some assays of this library far below -100).
This is an unselected part of the compounds tested.
A dash means the value is not listed here; it may have been measured.

Compound | Mtb growth Cornell | Mtb heat-shock
CCCn1nc2c(cc1=O)CN(c1ncnc3sccc13)CC2 | - | 8.866
COc1cc(N2CCCC(c3nccn3Cc3cscn3)C2)nc(N)n1 (centres unmarked) | 14.18 | 6.524
CN(CCCNC(=O)c1ccccc1F)CC(F)(F)F | 24.11 | 18.47
CCn1cc2c(n1)CN(S(=O)(=O)c1ccc(C)cc1)CC2COC (centres unmarked) | 9.276 | 2.512
[H][C@@]12CN(Cc3cccc(F)c3)C[C@]1([H])OCCN2CC(=O)N(C)C | -30.43 | 35.31
O=C1NC2(CCN(C(=O)c3ccnnc3)CC2)CC1c1ccccc1 (centres unmarked) | -39.3 | 0.8377
COc1cccnc1NC(=O)COC1CCCC1 | - | -21.34
CC1CCCN(C(=O)c2cccc(CS(C)(=O)=O)c2)C1 (centres unmarked) | 1.336 | 18.89
CCCN(C)C(=O)c1cc(S(=O)(=O)NCC)ccc1C | -30.6 | -3.229
Cc1c(S(=O)(=O)NCC(C)C)cnn1C | -2.001 | -10.11
Cc1nn(CCC(=O)NC2CCCOC2)c(C)c1C (centres unmarked) | 21.69 | 16.91
Cc1noc(C)c1S(=O)(=O)NC(=O)COc1cccc(C(C)C)c1 | - | 2.701
O=C(O)C(F)(F)F.[H][C@@]12COC[C@]1(CNC(=O)COC)CN(Cc1ccc3c(c1)OCO3)C2 | -4.106 | 15.97
O=C(C1=CCCC1)N1CC[C@]2(C[C@H](OCc3cccnc3)CO2)C1.O=C(O)C(F)(F)F | 20.69 | -45.97
O=C(O)C1CN(c2cccc(F)c2)CCO1 (centres unmarked) | -11.48 | 2.864
CCCn1nc(C(=O)NC2(c3ccc(Cl)cc3)CCCC2)ccc1=O | 34.34 | -5.416
CCC(CNC(C)=O)(OC)c1ccccc1 (centres unmarked) | 5.792 | 8.83
COc1ccccc1NC(=O)N1CCCC1c1ccco1 (centres unmarked) | 36.19 | 40.09
CN1CCOCC2(CCCN(C(=O)c3cnccn3)C2)C1.O=C(O)C(F)(F)F (centres unmarked) | 18.3 | -11.83
CC(C)C(NC(=O)c1ccc(=O)[nH]c1)c1nnc2n1CCNCC2 (centres unmarked) | -37.56 | -29.16
COCC(=O)NC1CC2(CCN(CCO)CC2)c2ccccc21.O=C(O)C(F)(F)F (centres unmarked) | -14.58 | 34.96
Cc1ncsc1CN(Cc1ccccc1)Cc1ccncc1 | 8.157 | 9.12
O=C(O)C(F)(F)F.O=C(O)C(F)(F)F.[H][C@@]12CCCO[C@]1([H])[C@@H](OCCN(C)C)CN2Cc1ccc(C)o1 | -10.1 | 5.996
Cc1ccc(NC(=O)C2CSCN2C(=O)c2cnccn2)cc1C (centres unmarked) | - | 3.301
CCOCCNC(=O)c1cnc(Sc2nccn2C)c(Cl)c1 | 19.84 | -33.8
CCc1nccn1-c1cncc(C2CCCN2Cc2cccnc2)n1 (centres unmarked) | - | 5.836
CNC(=O)[C@@H]1C[C@@H](N)CN1C1CCN(Cc2ccccn2)CC1 | -20.24 | -7.774
CCOC(=O)CCn1cnc2onc(-c3cc(OC)ccc3Cl)c2c1=O | 15 | -8.879
COc1ccc(Br)c(C(=O)N2CCC(c3n[nH]c(C4CC4)n3)CC2)c1 | - | -2.127
O=C(c1ccc2c(c1)CCCC2)N1CCn2ncnc2C1 | 41.07 | 29.68
COCCn1ccc(NC(=O)Nc2ccc(C(N)=O)c(F)c2)n1 | -4.905 | -12.35
CN1CC2(CNCCN(C(=O)Nc3ccccc3)C2)CC1=O.O=C(O)C(F)(F)F (centres unmarked) | - | -5.979
CCN1CCN(C2CCN(C(C(N)=O)c3ccc(F)cc3)CC2)C1=O (centres unmarked) | -18 | -6.449
COc1cc2c(cc1OC)C(=O)C(Sc1nnnn1C)C2 (centres unmarked) | -63.16 | -0.8785
[H][C@@]12OCCN(C(=O)COc3ccccc3)[C@@]1([H])CC[C@@H]2OCC | -27.66 | 46.79
O=C(O)C(F)(F)F.[H][C@@]12CN(C(=O)N3CCCC3)C[C@]1([H])OCCN2Cc1c(C)noc1C | - | -20.16
COCCn1ccc(NCc2sccc2C)n1 | 13.68 | -8.52
O=C(Nc1cccnc1)N1CCC(n2ccc(C(F)(F)F)n2)CC1 | 6.647 | 30.64
O=C(O)C(F)(F)F.[H][C@@]12C[C@H](C(=O)NC)[C@@]([H])(CN(Cc3ccc(C)cc3)C1)O2 | -7.517 | 33.5
Cc1ccccc1CC(=O)N1CCOCC1c1c(C)n[nH]c1C (centres unmarked) | - | 4.993
CS(=O)(=O)C1(CNCc2cccc(-n3cccn3)c2)CCOCC1 | -30.92 | -34.59
CC(C#N)CN(C)Cc1c(Cl)ccc2cccnc12 (centres unmarked) | -6.19 | -21.03
CCn1cc(NS(=O)(=O)c2ccc(F)cc2)c(C(=O)NCC(C)C)n1 | 32.06 | 9.5
COCC(c1ccccn1)N(C)C(=O)c1cc(-c2ccc(O)cc2)n[nH]1 (centres unmarked) | -38.37 | -15.15
COCCN(CC1CCCO1)C(=O)CCNC(=O)c1ccccc1F (centres unmarked) | -37.21 | 22.14
O=C1CCCN1CCc1noc(-c2ccc3[nH]cnc3c2)n1 | 5.086 | 9.44
COCC1c2nnn(CC3CC3)c2CCN1C(=O)c1cc(C)[nH]c1C (centres unmarked) | 9.563 | 70.57
O=C(C1CCC1)N1CCC2(CCCN2CC2CC2)CC1.O=C(O)C(F)(F)F | 2.615 | -5.31
CCOc1ccc(NC(=O)C2OC(c3cccs3)=NN2C(C)=O)cc1 (centres unmarked) | 20.37 | -2.864
Cn1ccc(C(=O)NCCOc2ccc(C(C)(C)C)cc2)cc1=O | 27.34 | -17.81
CCc1csc(C2CCCN(C(=O)C3=NN(CC)C(=O)CC3)C2)n1 (centres unmarked) | 2.372 | 6.714
O=C(O)C(F)(F)F.[H][C@@]12CCN(c3ccc(C)cc3)C[C@@]1([H])O[C@@H](C(=O)NCc1ccco1)C2 | 23.6 | 4.102
CS(=O)(=O)c1ccc(C(=O)N2CCCC(n3cccn3)C2)cc1 (centres unmarked) | - | 2.269
CC(=O)NCC(Cc1cccc(F)c1)n1cccc1 (centres unmarked) | 17.87 | 7.138
CNC(=O)C1(c2cnccn2)CCCN1C(=O)c1cccnc1OC (centres unmarked) | -7.551 | -6.194
Cc1noc(C)c1-c1cncc(C2CCCN2Cc2ncccc2F)n1 (centres unmarked) | -11.51 | -0.6083
COC(=O)CN(Cc1ccccc1C)C(=O)CCNC(=O)C(C)(C)C | - | -6.57
Cc1csc(CCNC(=O)NC(C)Cn2cccn2)n1 (centres unmarked) | - | -15.68

Some entries from above, unchanged:

{"compound": "O=C(O)C(F)(F)F.[H][C@@]12COC[C@]1(CNC(=O)COC)CN(Cc1ccc3c(c1)OCO3)C2", "Mtb growth Cornell": -4.106, "Mtb heat-shock": 15.97}
{"compound": "[H][C@@]12OCCN(C(=O)COc3ccccc3)[C@@]1([H])CC[C@@H]2OCC", "Mtb growth Cornell": -27.66, "Mtb heat-shock": 46.79}
{"compound": "O=C(O)C(F)(F)F.[H][C@@]12CN(C(=O)N3CCCC3)C[C@]1([H])OCCN2Cc1c(C)noc1C", "Mtb heat-shock": -20.16}
{"compound": "O=C(O)C(F)(F)F.[H][C@@]12C[C@H](C(=O)NC)[C@@]([H])(CN(Cc3ccc(C)cc3)C1)O2", "Mtb growth Cornell": -7.517, "Mtb heat-shock": 33.5}
{"compound": "O=C(C1CCC1)N1CCC2(CCCN2CC2CC2)CC1.O=C(O)C(F)(F)F", "Mtb growth Cornell": 2.615, "Mtb heat-shock": -5.31}

Measurements from “University of Dundee, Small-Polar-MMV Screening Library” (2021), ChEMBL document CHEMBL3988442.